# From PMC8384837
# Numbering of substitutions follows the chain as printed. The list shows a part of the results. For some of these results: At the low end of the ranking, values are background and their order means little.
# Columns and labels:
# Settings in all cases: yeast three-hybrid, YBZ-1, SC-Leu-His + 0.5 mM 3-AT, 4 days
# [1] = target: T1, PUM1 PUF domain R3-PWN C935P + R936W + Q939N (UniProt Q14671)
# T1 sequence: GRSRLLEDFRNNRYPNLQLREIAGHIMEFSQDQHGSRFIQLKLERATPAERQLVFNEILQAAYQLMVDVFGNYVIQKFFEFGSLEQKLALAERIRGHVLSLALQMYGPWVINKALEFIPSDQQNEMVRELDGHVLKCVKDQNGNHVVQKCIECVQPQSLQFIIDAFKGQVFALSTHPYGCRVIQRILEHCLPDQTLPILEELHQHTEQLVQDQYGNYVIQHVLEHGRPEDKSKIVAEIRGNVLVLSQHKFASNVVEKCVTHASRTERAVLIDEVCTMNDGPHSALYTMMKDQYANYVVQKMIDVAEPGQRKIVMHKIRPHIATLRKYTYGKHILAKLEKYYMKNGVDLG
# [2] = target: T2, PUM1 PUF domain R3-PWS C935P + R936W + Q939S (Homo sapiens) (UniProt Q14671)
# T2 sequence: T1 sequence with N112S
# [3] = target: T3, PUM1 PUF domain R3-PWV C935P + R936W + Q939V (UniProt Q14671)
# T3 sequence: T1 sequence with N112V
# [4] = target: T4, PUM1 PUF domain R3-QPE C935Q + R936P + Q939E (UniProt Q14671)
# T4 sequence: T1 sequence with P108Q, W109P, N112E
# [5] = target: T5, PUM1 PUF domain R3-QPR C935Q + R936P + Q939R (UniProt Q14671)
# T5 sequence: T1 sequence with P108Q, W109P, N112R
# [6] = target: T6, PUM1 PUF domain R3-QRS C935Q + Q939S (UniProt Q14671)
# T6 sequence: T1 sequence with P108Q, W109R, N112S
# [7] = target: T7, PUM1 PUF domain R3-QRV C935Q + Q939V (UniProt Q14671)
# T7 sequence: T1 sequence with P108Q, W109R, N112V
# [8] = target: T8, PUM1 PUF domain R3-RAA C935R + R936A + Q939A (UniProt Q14671)
# T8 sequence: T1 sequence with P108R, W109A, N112A
# [9] = target: T9, PUM1 PUF domain R3-RAC C935R + R936A + Q939C (UniProt Q14671)
# T9 sequence: T1 sequence with P108R, W109A, N112C
# [10] = target: T10, PUM1 PUF domain R3-RAD C935R + R936A + Q939D (UniProt Q14671)
# T10 sequence: T1 sequence with P108R, W109A, N112D
# [11] = target: T11, PUM1 PUF domain R3-RAF C935R + R936A + Q939F (UniProt Q14671)
# T11 sequence: T1 sequence with P108R, W109A, N112F
# [12] = target: T12, PUM1 PUF domain R3-RAG C935R + R936A + Q939G (UniProt Q14671)
# T12 sequence: T1 sequence with P108R, W109A, N112G
# [13] = target: T13, PUM1 PUF domain R3-RAQ C935R + R936A (UniProt Q14671)
# T13 sequence: T1 sequence with P108R, W109A, N112Q
# [14] = target: T14, PUM1 PUF domain R3-RAR C935R + R936A + Q939R (UniProt Q14671)
# T14 sequence: T1 sequence with P108R, W109A, N112R
# [15] = target: T15, PUM1 PUF domain R3-RAS C935R + R936A + Q939S (Homo sapiens) (UniProt Q14671)
# T15 sequence: T1 sequence with P108R, W109A, N112S
# [16] = target: T16, PUM1 PUF domain R3-RAT C935R + R936A + Q939T (UniProt Q14671)
# T16 sequence: T1 sequence with P108R, W109A, N112T
# [17] = target: T17, PUM1 PUF domain R3-RAV C935R + R936A + Q939V (UniProt Q14671)
# T17 sequence: T1 sequence with P108R, W109A, N112V
# [18] = target: T18, PUM1 PUF domain R3-RAW C935R + R936A + Q939W (UniProt Q14671)
# T18 sequence: T1 sequence with P108R, W109A, N112W
# [19] = target: T19, PUM1 PUF domain R3-RAY C935R + R936A + Q939Y (UniProt Q14671)
# T19 sequence: T1 sequence with P108R, W109A, N112Y
# [20] = target: T20, PUM1 PUF domain R3-RCA C935R + R936C + Q939A (UniProt Q14671)
# T20 sequence: T1 sequence with P108R, W109C, N112A
# [21] = target: T21, PUM1 PUF domain R3-RCD C935R + R936C + Q939D (UniProt Q14671)
# T21 sequence: T1 sequence with P108R, W109C, N112D
# [22] = target: T22, PUM1 PUF domain R3-RDR C935R + R936D + Q939R (UniProt Q14671)
# T22 sequence: T1 sequence with P108R, W109D, N112R
# [23] = target: T23, PUM1 PUF domain R3-RDS C935R + R936D + Q939S (UniProt Q14671)
# T23 sequence: T1 sequence with P108R, W109D, N112S
# [24] = target: T24, PUM1 PUF domain R3-RER C935R + R936E + Q939R (UniProt Q14671)
# T24 sequence: T1 sequence with P108R, W109E, N112R
# [25] = target: T25, PUM1 PUF domain R3-RGG C935R + R936G + Q939G (UniProt Q14671)
# T25 sequence: T1 sequence with P108R, W109G, N112G
# [26] = target: T26, PUM1 PUF domain R3-RGR C935R + R936G + Q939R (UniProt Q14671)
# T26 sequence: T1 sequence with P108R, W109G, N112R
# [27] = target: T27, PUM1 PUF domain R3-RIG C935R + R936I + Q939G (UniProt Q14671)
# T27 sequence: T1 sequence with P108R, W109I, N112G
# [28] = target: T28, PUM1 PUF domain R3-RIK C935R + R936I + Q939K (UniProt Q14671)
# T28 sequence: T1 sequence with P108R, W109I, N112K
# [29] = target: T29, PUM1 PUF domain R3-RIR C935R + R936I + Q939R (Homo sapiens) (UniProt Q14671)
# T29 sequence: T1 sequence with P108R, W109I, N112R
# [30] = target: T30, PUM1 PUF domain R3-RMR C935R + R936M + Q939R (UniProt Q14671)
# T30 sequence: T1 sequence with P108R, W109M, N112R
# [31] = target: T31, PUM1 PUF domain R3-RMW C935R + R936M + Q939W (UniProt Q14671)
# T31 sequence: T1 sequence with P108R, W109M, N112W
# [32] = target: T32, PUM1 PUF domain R3-RNE C935R + R936N + Q939E (UniProt Q14671)
# T32 sequence: T1 sequence with P108R, W109N, N112E
# [33] = target: T33, PUM1 PUF domain R3-RNG C935R + R936N + Q939G (UniProt Q14671)
# T33 sequence: T1 sequence with P108R, W109N, N112G
# [34] = target: T34, PUM1 PUF domain R3-RPA C935R + R936P + Q939A (UniProt Q14671)
# T34 sequence: T1 sequence with P108R, W109P, N112A
# [35] = target: T35, PUM1 PUF domain R3-RPG C935R + R936P + Q939G (UniProt Q14671)
# T35 sequence: T1 sequence with P108R, W109P, N112G
# [36] = target: T36, PUM1 PUF domain R3-RPR C935R + R936P + Q939R (UniProt Q14671)
# T36 sequence: T1 sequence with P108R, W109P, N112R
# [37] = target: T37, PUM1 PUF domain R3-RPS C935R + R936P + Q939S (UniProt Q14671)
# T37 sequence: T1 sequence with P108R, W109P, N112S
# [38] = target: T38, PUM1 PUF domain R3-RPV C935R + R936P + Q939V (UniProt Q14671)
# T38 sequence: T1 sequence with P108R, W109P, N112V
# [39] = target: T39, PUM1 PUF domain R3-RPW C935R + R936P + Q939W (UniProt Q14671)
# T39 sequence: T1 sequence with P108R, W109P, N112W
# [40] = target: T40, PUM1 PUF domain R3-RQE C935R + R936Q + Q939E (UniProt Q14671)
# T40 sequence: T1 sequence with P108R, W109Q, N112E
sequence,measurement,setting,value
GGCUAGAACUAGUGGAUCCCCCGGCGCCCGGCGGCUCGAGCCCGGGUAAGUGUAACUAGUCUGCAUGCCGCCGGGCGCCAUGCCUGCAGGUCGACUCUAGAAAACAUG,binding signal (log2 enrichment (interaction score)),[1],-3.38
same,binding signal (log2 enrichment (interaction score)),[2],-1.38
same,binding signal (log2 enrichment (interaction score)),[3],< -6.89
same,binding signal (log2 enrichment (interaction score)),[4],< -8.92
same,binding signal (log2 enrichment (interaction score)),[5],-2.74
same,binding signal (log2 enrichment (interaction score)),[6],< -8.11
same,binding signal (log2 enrichment (interaction score)),[7],< -6.88
same,binding signal (log2 enrichment (interaction score)),[8],-5.35
same,binding signal (log2 enrichment (interaction score)),[9],< -6.6
same,binding signal (log2 enrichment (interaction score)),[10],< -9.27
same,binding signal (log2 enrichment (interaction score)),[11],< -8.42
same,binding signal (log2 enrichment (interaction score)),[12],-5.09
same,binding signal (log2 enrichment (interaction score)),[13],< -6.36
same,binding signal (log2 enrichment (interaction score)),[14],-4.49
same,binding signal (log2 enrichment (interaction score)),[15],-1.52
same,binding signal (log2 enrichment (interaction score)),[16],< -6.73
same,binding signal (log2 enrichment (interaction score)),[17],< -8.68
same,binding signal (log2 enrichment (interaction score)),[18],< -10.3
same,binding signal (log2 enrichment (interaction score)),[19],< -7.57
same,binding signal (log2 enrichment (interaction score)),[20],< -6.88
same,binding signal (log2 enrichment (interaction score)),[21],< -6.29
same,binding signal (log2 enrichment (interaction score)),[22],< -8.29
same,binding signal (log2 enrichment (interaction score)),[23],< -8.75
same,binding signal (log2 enrichment (interaction score)),[24],< -9.29
same,binding signal (log2 enrichment (interaction score)),[25],-5.32
same,binding signal (log2 enrichment (interaction score)),[26],-4.97
same,binding signal (log2 enrichment (interaction score)),[27],-6.09
same,binding signal (log2 enrichment (interaction score)),[28],-3.76
same,binding signal (log2 enrichment (interaction score)),[29],-4.5
same,binding signal (log2 enrichment (interaction score)),[30],< -8.68
same,binding signal (log2 enrichment (interaction score)),[31],< -7.96
same,binding signal (log2 enrichment (interaction score)),[32],< -8.33
same,binding signal (log2 enrichment (interaction score)),[33],< -6.8
same,binding signal (log2 enrichment (interaction score)),[34],< -8.26
same,binding signal (log2 enrichment (interaction score)),[35],-3.11
same,binding signal (log2 enrichment (interaction score)),[36],< -9.59
same,binding signal (log2 enrichment (interaction score)),[37],< -8.21
same,binding signal (log2 enrichment (interaction score)),[38],< -9.6
same,binding signal (log2 enrichment (interaction score)),[39],< -8.3
same,binding signal (log2 enrichment (interaction score)),[40],< -7.16

# Shown bar-delimited: entries from further up.
sequence | measurement | setting | value
GGCUAGAACUAGUGGAUCCCCCGGCGCCCGGCGGCUCGAGCCCGGGUAAGUGUAACUAGUCUGCAUGCCGCCGGGCGCCAUGCCUGCAGGUCGACUCUAGAAAACAUG | binding signal (log2 enrichment (interaction score)) | [11] | < -8.42
same | binding signal (log2 enrichment (interaction score)) | [23] | < -8.75
same | binding signal (log2 enrichment (interaction score)) | [39] | < -8.3
